PubChem BioAssay AID1259308 – NCATS | 2017
This is one part, drawn at random, of about 59,000 reagents. About 1,510 of all reagents (2.6%) were called active. 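Calls use total luciferase alone and ignore viability, so some active siRNAs may act by altering cell number.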 Unmarked entries are inactive. The numbers tell different reagents against one gene apart. Not all columns of the deposit are shown.

- Aim: 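Knock-downs that increase output of a recombinant reporter protein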 (primary screen)
- Cell system: human HEK293 embryonic kidney cells stably expressing firefly luciferase (HEK-CMV-Luc2-Hygro)
- Reagents: single siRNA against human genes, 0.8 pmol siRNA per well
- Timing: 72 h
- Measurement: 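Reporter luminescence and viable-cell signal on separate replicate plates, given as percent of non-targeting control and median/MAD z-scores, plus per-cell luciferase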
- Direction: total luciferase, z-score: higher = more reporter protein produced
- Call rule: 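An siRNA counts as active if its total luciferase robust z-score exceeds 3; genes with two or more such siRNAs out of three were retested with fresh siRNAs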
- Meaning of the calls: active = raised luciferase; inactive = no rise

For SLC34A3 #1 the deposit lists total luciferase, z-score -0.249. Silencing of SLC34A3 #2 resulted in: total luciferase, z-score -0.125. Silencing of SLC34A3 #3 came out at: total luciferase, z-score -0.135. After knock-down of N4BP2L1 #1, the screen gave total luciferase, z-score 3.21 (active). N4BP2L1 #2 showed total luciferase, z-score -2.04. After knock-down of N4BP2L1 #3, the screen gave total luciferase, z-score 0.996.

Silencing of SPPL2C #1 gave: total luciferase, z-score -0.391. SPPL2C #2 showed total luciferase, z-score 1.65. With knock-down of SPPL2C #3, the screen gave total luciferase, z-score -0.456. Knock-down of RDH11 #1 came out at: total luciferase, z-score 0.0804. For RDH11 #2 the deposit lists total luciferase, z-score 0.141. RDH11 #3 gave total luciferase, z-score -1.77.

Depletion of HTR2B #1 resulted in: total luciferase, z-score 0.344. HTR2B #2 scored total luciferase, z-score 1.46. Against HTR2B #3 the deposit lists total luciferase, z-score 2.18. Against CIAO2A #1, the entry reads total luciferase, z-score 0.45. After knock-down of CIAO2A #2, the record shows total luciferase, z-score -2.05. Against CIAO2A #3, the values are total luciferase, z-score 1.07.

After knock-down of DIRAS3 #1, the record shows total luciferase, z-score -0.35. Silencing of DIRAS3 #2 gave: total luciferase, z-score -0.607. With knock-down of DIRAS3 #3 the results were total luciferase, z-score 0.0967.

Part of the list above in another layout.
| Target gene | reagent | total luciferase, z-score |
| --- | --- | --- |
| RDH11 | 2 | 0.141 |
| RDH11 | 3 | -1.77 |
| HTR2B | 1 | 0.344 |
| HTR2B | 2 | 1.46 |

Next results follow:
Depletion of SERTAD1 #1 came out at: total luciferase, z-score -1.41. Knock-down of SERTAD1 #2 resulted in: total luciferase, z-score -0.151. For SERTAD1 #3, the values are total luciferase, z-score -0.67. Depletion of TMEM150C #1 resulted in: total luciferase, z-score -0.378. Knock-down of TMEM150C #2 resulted in: total luciferase, z-score -0.692. Against TMEM150C #3 the deposit lists total luciferase, z-score -0.269.

After knock-down of CD8A #1 the results were total luciferase, z-score -0.231. For CD8A #2, the values are total luciferase, z-score -0.207. With knock-down of CD8A #3, the record shows total luciferase, z-score 0.153. With knock-down of S100A10 #1, the record shows total luciferase, z-score 1.87. Against S100A10 #2, the entry reads total luciferase, z-score 0.308. After knock-down of S100A10 #3 the results were total luciferase, z-score 2.2.
